In this experiment the test system is BDF1 mice, P388 leukemia ip, median survival T/C. Description: NCI In Vivo Anticancer Drug Screen. Data for tumor model P388 Leukemia (intraperitoneal) in B6D2F1 (BDF1) mice. The conditions noted are these: T/C endpoint: median survival time, higher T/C = longer survival. The procedure, abridged:
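Each value expresses how treatment altered survival: treated-mouse outcome over vehicle-mouse outcome, both groups bearing the transplanted tumour.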

Setting [1] is: dose: 50.0 mg/kg/injection, schedule: Q01DX009 (ip), vehicle: saline.
The mark [2] stands for this setting: dose: 100.0 mg/kg/injection, schedule: Q01DX009 (ip), vehicle: saline.
The mark [3] stands for this setting: dose: 200.0 mg/kg/injection, schedule: Q01DX009 (ip), vehicle: saline.
The mark [4] stands for this setting: dose: 100.0 mg/kg/injection, schedule: Q01DX009 (ip), vehicle: saline with Tween-80.
Where [5] appears, read: dose: 200.0 mg/kg/injection, schedule: Q01DX009 (ip), vehicle: saline with Tween-80.
Where [6] appears, read: dose: 400.0 mg/kg/injection, schedule: Q04DX003 (ip), vehicle: saline.
[7] abbreviates: dose: 10.0 mg/kg/injection, schedule: Q01DX009 (ip), vehicle: saline.
Setting [8] is: dose: 400.0 mg/kg/injection, schedule: Q04DX003 (ip), vehicle: saline with Tween-80.
Where [9] appears, read: dose: 50.0 mg/kg/injection, schedule: Q04DX003 (ip), vehicle: saline with Tween-80.
The mark [10] stands for this setting: dose: 100.0 mg/kg/injection, schedule: Q04DX003 (ip), vehicle: saline with Tween-80.
Where [11] appears, read: dose: 200.0 mg/kg/injection, schedule: Q04DX003 (ip), vehicle: saline with Tween-80.
Setting [12] is: dose: 400.0 mg/kg/injection, schedule: Q04DX003 (ip), vehicle: other.

SMILES strings stand for the structures. The list shows only some results of the screen, not a fair sample: it gathers tests that were run many times, whatever their T/C, doses with no T/C, and many T/C values between a quarter and a half above the control. Other doses and runs of a compound stand elsewhere. T/C gives the treated animals as a percentage of the vehicle group. Some entries give survivors of the animals treated and no T/C: the source files T/C as zero there, which appears to mark a toxic dose or a test without result, not a measured value. Some doses without a T/C left all or most animals alive at the check, yet need not have been tolerated: the source hardly ever lists a survival T/C far under the control, and the zero likely stands for such cases as well. Counts of survivors are from the toxicity check (mostly the fifth day) where no day follows; animals may have died later. Schedules are NCI's codes, taken here to give the interval after Q, in days (D) or hours (H), and the number of doses after X. Where survival is the endpoint, the PubChem record calls one and a half times the control and up active, and a quarter to a half above the control has no call in these data; cut-offs in other NCI protocols can differ. Some doses were run more than once; their values stand side by side, smallest first. Some T/C values carry the count of animals alive at the toxicity check (mostly the fifth day); without a count, all were alive then.

Take `O=C(c1ccc(Cl)cc1)n1c(Cl)c(/C=N\Nc2cccc([N+](=O)[O-])c2)c2ccccc21`: the survivor count reads like this: (dose: 100.0 mg/kg/injection, schedule: Q01DX001 (ip), vehicle: Klucel (hydroxypropylcellulose) (HPC)) 6 of 6; (dose: 200.0 mg/kg/injection, schedule: Q01DX001 (ip), vehicle: Klucel (hydroxypropylcellulose) (HPC)) 6 of 6.

As to `CCCCCCCC[N+]12CC[N+](CCCCCCCC)(CC1)CC2`, the survivor count reads like this: (dose: 12.5 mg/kg/injection, schedule: Q01DX009 (ip), vehicle: saline) 3 of 6; under setting [1], 0 of 6; under setting [2], 0 of 6; under setting [3], 0 of 6.

Consider `CC(=Nc1ccccc1)C1=C(O)C(Cc2ccccc2)NC1=O` (stereo not drawn), for which the T/C under setting [4] was 137 % of control. Moreover, the survivor count is listed as 5 of 6 under setting [5] and 0 of 6 (dose: 400.0 mg/kg/injection, schedule: Q01DX009 (ip), vehicle: saline with Tween-80).

For the compound `CC[P+](CC)(CC)CCCCI`, the survivor count is 5 of 6 under setting [1] and 0 of 6 under setting [2].

Consider `CC(C)OC(CCC#N)c1ccccc1` (stereo not drawn), for which, for the setting “dose: 400.0 mg/kg/injection, schedule: Q01DX009 (ip), vehicle: Klucel (hydroxypropylcellulose) (HPC)”, the survivor count is recorded as 5 of 6.

For the compound `Cc1ccc(OC(=O)Nc2ccc(C(=O)O)c(O)c2)cc1`, the T/C under setting [3] was 131 % of control [4 of 6 alive]. Moreover, the survivor count under setting [6] is given as 3 of 6.

`C1CN1P1(N2CC2)=NP(N2CC2)(N2CC2)=NP(N2CC2)(N2CC2)=NP(N2CC2)(N2CC2)=N1`: the T/C by setting is: (dose: 0.83 mg/kg/injection, schedule: Q04DX003 (ip), vehicle: saline) 125 % of control; (dose: 1.2 mg/kg/injection, schedule: Q04DX003 (ip), vehicle: saline) 133 % of control; (dose: 1.25 mg/kg/injection, schedule: Q04DX003 (ip), vehicle: saline) 127 % of control; (dose: 2.5 mg/kg/injection, schedule: Q04DX003 (ip), vehicle: saline) 140 % of control; (dose: 6.6 mg/kg/injection, schedule: Q04DX003 (ip), vehicle: saline) 127 % of control; under setting [7], 135 % of control. The T/C (dose: 20.0 mg/kg/injection, schedule: Q04DX003 (ip), vehicle: saline) is on record as 104, 180, 285, 300 % of control. Moreover, the survivor count by setting is: (dose: 6.6 mg/kg/injection, schedule: Q01DX009 (ip), vehicle: saline) 6 of 6; under setting [7], 6 of 6; (dose: 15.0 mg/kg/injection, schedule: Q01DX009 (ip), vehicle: saline) 6 of 6; (dose: 30.0 mg/kg/injection, schedule: Q04DX003 (ip), vehicle: saline) 6 of 6; (dose: 40.0 mg/kg/injection, schedule: Q04DX003 (ip), vehicle: saline) 4 of 6; (dose: 80.0 mg/kg/injection, schedule: Q04DX003 (ip), vehicle: saline) 5 of 6.

Consider `CC(=O)OCc1ccc(-n2c(C(F)(F)F)nc3nc(Cl)c(Cl)nc32)o1`, for which the survivor count under setting [3] is recorded as 5 of 6 and the survivor count (dose: 400.0 mg/kg/injection, schedule: Q01DX009 (ip), vehicle: saline) is 4 of 6.

Consider `O=C(O)c1cc2ccccc2c2cc(Br)ccc12`, for which the survivor count under setting [8] was 6 of 6.

In the case of `N#Cc1ccc(OC(=O)c2ccc(N=C(N)N)cc2)cc1`, under setting [6], the survivor count is given as 3 of 6.

As for `CC(C)=CCC/C(C)=C/CNc1ncnc2nc[nH]c12`, the T/C is, setting by setting: under setting [9], 125 % of control; under setting [10], 128 % of control [5 of 6 alive]; under setting [11], 130 % of control.

In the case of `O=c1cc(-c2ccccc2)ss1`, the T/C was 139 % of control (dose: 25.0 mg/kg/injection, schedule: Q01DX009 (ip), vehicle: saline with Tween-80, evaluated on day 30); 135 % of control (dose: 25.0 mg/kg/injection, schedule: Q01DX009 (ip), vehicle: saline with Tween-80, evaluated on day 35); 133 % of control [5 of 6 alive] under setting [11]; 140 % of control [4 of 6 alive] under setting [12]. For the same compound, the survivor count was 3 of 6 under setting [12] and 2 of 6 under setting [8].

Regarding `NC(CCC(=O)NC(CSC(c1ccccc1)(c1ccccc1)c1ccc(F)cc1)C(=O)NCC(=O)O)C(=O)O` (stereo not drawn), the T/C is, setting by setting: (dose: 75.0 mg/kg/injection, schedule: Q04DX003 (ip), vehicle: saline) 131 % of control; (dose: 177.0 mg/kg/injection, schedule: Q04DX003 (ip), vehicle: saline) 145 % of control. The survivor count is given as 3 of 6 under setting [6]; 2 of 6 (dose: 600.0 mg/kg/injection, schedule: Q04DX003 (ip), vehicle: saline with Tween-80); 4 of 6 (dose: 600.0 mg/kg/injection, schedule: Q04DX003 (ip), vehicle: saline).

On to `CCCOC1=C(N2CC2)C(=O)C(OCCC)=C(N2CC2)C1=O`, for which the T/C (dose: 3.3 mg/kg/injection, schedule: Q04DX003 (ip), vehicle: saline with Tween-80) is 126 % of control; the T/C (dose: 5.0 mg/kg/injection, schedule: Q04DX003 (ip), vehicle: saline with Tween-80) was 130 % of control; the T/C (dose: 5.55 mg/kg/injection, schedule: Q04DX003 (ip), vehicle: saline with Tween-80) was 145 % of control. Further, the survivor count was 4 of 6 under setting [9], 4 of 6 under setting [10], 1 of 6 under setting [11] and 0 of 6 under setting [8].

As for `CC1OC(Oc2c(-c3cc(O)c(O)c(O)c3)oc3cc(O)cc(O)c3c2=O)C(O)C(O)C1O` (stereo not drawn), the survivor count under setting [5] was 5 of 6.

In the case of `O=C(CBr)N=c1cc(-c2ccc(Cl)cc2)ss1`, the survivor count (dose: 50.0 mg/kg/injection, schedule: Q04DX003 (ip), vehicle: saline) is 6 of 6; the survivor count (dose: 100.0 mg/kg/injection, schedule: Q04DX003 (ip), vehicle: saline) is listed as 6 of 6; the survivor count (dose: 200.0 mg/kg/injection, schedule: Q04DX003 (ip), vehicle: saline) is reported as 4 of 6; the survivor count under setting [6] was 5 of 6.

As to `O=[N+]([O-])c1ccc(OCCNS(=O)(=O)c2cccc(S(=O)(=O)F)c2)c(Cl)c1`, the survivor count is recorded as 5 of 6 (dose: 25.0 mg/kg/injection, schedule: Q01DX009 (ip), vehicle: saline with Tween-80); 6 of 6 (dose: 50.0 mg/kg/injection, schedule: Q01DX009 (ip), vehicle: saline with Tween-80); 5 of 6 under setting [4]; 6 of 6 under setting [5].

As for `OCC#CC#CCO`, the survivor count by setting is: (dose: 200.0 mg/kg/injection, schedule: Q01DX001 (ip), vehicle: saline) 1 of 6; (dose: 400.0 mg/kg/injection, schedule: Q01DX001 (ip), vehicle: saline) 0 of 6.

For the origin of these results see PubChem BioAssay AID328 (DTP/NCI, 2004).
